Laboratory results as given in publication PMC5087660.
These are yes or no findings as the source states them, for the method shown. Binding seen in cells or lysates may run through a third protein. Some entries that bind do so weakly or less than the wild type. Tags and fused reporters may be left off the sequences shown.

T1: Orai-CFP (ectopically expressed dOrai-CFP+ transgene) (Drosophila) (UniProt Q9U6B8)
T1 sequence: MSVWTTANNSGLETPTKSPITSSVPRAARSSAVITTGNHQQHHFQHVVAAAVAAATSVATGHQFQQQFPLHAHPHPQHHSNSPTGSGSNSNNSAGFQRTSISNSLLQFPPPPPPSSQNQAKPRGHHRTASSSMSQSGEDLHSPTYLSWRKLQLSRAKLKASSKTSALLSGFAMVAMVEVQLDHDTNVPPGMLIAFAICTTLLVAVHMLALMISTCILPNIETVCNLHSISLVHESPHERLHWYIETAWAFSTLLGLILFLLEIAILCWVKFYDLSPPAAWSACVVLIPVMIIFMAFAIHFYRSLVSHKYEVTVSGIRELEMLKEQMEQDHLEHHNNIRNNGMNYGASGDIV

T2: STIM-YFP (Drosophila) (UniProt P83094)
T2 sequence: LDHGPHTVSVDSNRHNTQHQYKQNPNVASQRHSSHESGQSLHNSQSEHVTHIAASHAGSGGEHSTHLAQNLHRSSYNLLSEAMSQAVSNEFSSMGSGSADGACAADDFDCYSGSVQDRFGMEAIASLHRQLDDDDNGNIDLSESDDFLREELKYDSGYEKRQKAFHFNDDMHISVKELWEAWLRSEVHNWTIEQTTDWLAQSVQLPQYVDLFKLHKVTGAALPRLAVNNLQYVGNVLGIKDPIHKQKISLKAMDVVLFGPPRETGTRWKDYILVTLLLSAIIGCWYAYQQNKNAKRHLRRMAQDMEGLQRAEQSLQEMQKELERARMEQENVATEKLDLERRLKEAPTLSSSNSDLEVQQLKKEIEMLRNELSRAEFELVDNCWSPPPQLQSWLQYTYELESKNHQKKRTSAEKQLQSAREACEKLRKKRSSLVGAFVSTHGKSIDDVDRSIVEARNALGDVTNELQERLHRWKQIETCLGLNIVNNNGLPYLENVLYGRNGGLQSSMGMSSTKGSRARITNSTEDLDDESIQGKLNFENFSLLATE

B1: STIM (endogenous, Drosophila) (protein, UniProt P83094 24-570)
chain: T2 sequence
B2: Orai (endogenous, Drosophila) (protein, UniProt Q9U6B8 1-351)
chain: T1 sequence

Experiments:
[1] = target: T1, Orai-CFP (ectopically expressed dOrai-CFP+ transgene) (Drosophila); test: co-IP; anti-GFP antibody on Dynabeads, 18-20 h at 4°C; lysate in PBS pH 7.4 with 1% NP-40 and 5 mM EDTA; larval brains with or without thapsigargin (10 µM in Ca2+-free HBM, 10 min); for Orai-CFP with wild-type or mutant IP3R; western blot
STIM-YFP (Drosophila) = target: T2, STIM-YFP (Drosophila); test: as above

Binder	binding [1]	binding (STIM-YFP (Drosophila))
B1	binds	–
B2	–	binds
